Results are given in words; binding and its absence hold for the method and conditions named. Binding seen in cells or lysates may run through a third protein. Some results given as binding are weak or reduced against the parent protein; the word gives no strength.
Experiments:
His-PRMT1 = His-PRMT1 (UniProt Q99873); test: co-IP; HEK-293T cells transfected with Flag-USP7 and His-PRMT1; lysates in buffer A (25 mM Tris-HCl pH 8.0, 10 mM NaCl, 0.5 mM EDTA, 0.5% NP-40) precipitated with anti-Flag or anti-His antibodies and Protein A/G magnetic beads at 4 °C; western blot
Flag-USP7 = Flag-USP7 (UniProt Q93009); test: as above

The chains behind the UniProt entries cited, without tags or fusion partners.
UniProt Q99873: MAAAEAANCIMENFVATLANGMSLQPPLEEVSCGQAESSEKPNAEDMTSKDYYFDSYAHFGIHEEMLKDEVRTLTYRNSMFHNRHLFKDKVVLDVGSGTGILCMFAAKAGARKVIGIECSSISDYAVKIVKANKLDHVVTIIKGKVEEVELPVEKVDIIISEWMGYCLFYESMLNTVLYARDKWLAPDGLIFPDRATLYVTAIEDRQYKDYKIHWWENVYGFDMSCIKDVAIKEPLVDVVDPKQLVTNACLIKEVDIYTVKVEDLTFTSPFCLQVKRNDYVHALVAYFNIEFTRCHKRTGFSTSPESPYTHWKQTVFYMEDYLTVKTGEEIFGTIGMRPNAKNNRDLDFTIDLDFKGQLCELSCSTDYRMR
UniProt Q93009: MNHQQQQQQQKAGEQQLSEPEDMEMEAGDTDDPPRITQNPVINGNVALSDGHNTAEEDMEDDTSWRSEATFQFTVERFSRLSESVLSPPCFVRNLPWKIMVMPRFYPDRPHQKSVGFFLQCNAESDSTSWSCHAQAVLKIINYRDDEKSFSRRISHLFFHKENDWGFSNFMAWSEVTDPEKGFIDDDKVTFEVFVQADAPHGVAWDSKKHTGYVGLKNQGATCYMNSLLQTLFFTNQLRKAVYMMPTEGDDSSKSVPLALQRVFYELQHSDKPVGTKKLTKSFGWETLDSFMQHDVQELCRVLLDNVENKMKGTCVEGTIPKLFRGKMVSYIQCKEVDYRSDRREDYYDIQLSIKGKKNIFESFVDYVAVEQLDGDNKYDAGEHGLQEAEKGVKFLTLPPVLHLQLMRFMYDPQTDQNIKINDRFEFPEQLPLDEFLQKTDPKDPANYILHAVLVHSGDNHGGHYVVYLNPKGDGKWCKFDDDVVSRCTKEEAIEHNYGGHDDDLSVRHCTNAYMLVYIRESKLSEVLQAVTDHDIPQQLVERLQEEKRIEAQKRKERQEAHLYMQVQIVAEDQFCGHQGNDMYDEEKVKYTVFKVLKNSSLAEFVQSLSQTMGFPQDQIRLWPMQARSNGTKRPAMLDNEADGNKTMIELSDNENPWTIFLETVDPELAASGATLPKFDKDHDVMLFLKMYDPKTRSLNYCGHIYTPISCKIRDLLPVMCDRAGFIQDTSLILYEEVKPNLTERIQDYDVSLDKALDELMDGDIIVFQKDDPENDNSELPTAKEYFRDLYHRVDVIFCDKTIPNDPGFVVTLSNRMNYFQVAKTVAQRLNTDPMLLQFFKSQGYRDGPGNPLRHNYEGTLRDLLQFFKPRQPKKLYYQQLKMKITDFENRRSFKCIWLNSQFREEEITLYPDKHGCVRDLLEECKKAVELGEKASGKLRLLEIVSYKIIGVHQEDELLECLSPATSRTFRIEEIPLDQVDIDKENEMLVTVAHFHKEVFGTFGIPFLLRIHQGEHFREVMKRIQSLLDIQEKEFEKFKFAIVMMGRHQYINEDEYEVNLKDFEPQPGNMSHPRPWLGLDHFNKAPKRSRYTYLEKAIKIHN

Row | Substance | binding (His-PRMT1) | binding (Flag-USP7)
1 | Flag-USP7 (from UniProt Q93009 1-1102) (enzyme) | binds | –
2 | His-PRMT1 (from UniProt Q99873 1-371) (enzyme) | – | binds

Reference: paper PMC11251085
